In PubChem BioAssay AID1671190 (National Center for Advancing Translational Sciences (NCATS), 2021):
Values joined by “and” are separate entries in the source; they are usually repeats but may differ in a detail not shown here. Identical values can stand only once. The campaign covered roughly 580,000 compounds. About 6,100 (1.1%) were called active. Inconclusive means that the source gave no clear call. Such entries were picked first, then a sample of the others. Calls come from the whole dose curve; as a rule, active = well fitted inhibition curve with a large enough effect; inconclusive = small, poorly fitted or top-dose-only effect, or another doubt; inactive = no such curve, though single readings can be large or run the other way. Potencies of inconclusive entries are doubtful fits and often do not repeat.
% is set by controls: 0 for no effect and ±100 for the full control effect; potency is the fitted concentration of half-maximal effect.

Protein sequences, listed by entry. Tags and fused reporters are not part of them. Lines headed by an entry give the natural chain unless they say otherwise; changes in a name come on top.
UniProt P18054: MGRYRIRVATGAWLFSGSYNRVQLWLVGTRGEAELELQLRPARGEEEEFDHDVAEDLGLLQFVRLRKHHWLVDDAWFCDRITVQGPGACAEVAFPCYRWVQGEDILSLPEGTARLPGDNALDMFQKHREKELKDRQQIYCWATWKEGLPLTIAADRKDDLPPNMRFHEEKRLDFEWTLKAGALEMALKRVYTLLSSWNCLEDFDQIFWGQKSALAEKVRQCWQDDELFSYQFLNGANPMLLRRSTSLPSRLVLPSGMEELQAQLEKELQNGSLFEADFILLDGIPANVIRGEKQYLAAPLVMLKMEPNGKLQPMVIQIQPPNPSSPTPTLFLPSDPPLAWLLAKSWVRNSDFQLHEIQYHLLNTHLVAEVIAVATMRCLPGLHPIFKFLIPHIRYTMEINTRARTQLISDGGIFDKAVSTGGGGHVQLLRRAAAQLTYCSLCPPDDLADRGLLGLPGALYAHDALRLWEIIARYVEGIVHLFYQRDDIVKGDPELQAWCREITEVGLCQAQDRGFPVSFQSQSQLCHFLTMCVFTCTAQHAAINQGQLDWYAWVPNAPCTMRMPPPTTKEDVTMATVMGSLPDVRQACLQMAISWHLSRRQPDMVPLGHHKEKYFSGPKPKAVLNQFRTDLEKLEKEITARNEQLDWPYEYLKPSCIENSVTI

What follows are molecules tested against Polyunsaturated fatty acid lipoxygenase ALOX12 (Homo sapiens) (UniProt P18054) (assay: Primary qHTS assay for inhibitors of human arachidonate 12S-lipoxygenase (ALOX12): Round 2). Details: purified 12hLO, xylenol orange hydroperoxide absorbance; activity change, negative = inhibition: at 108 µM (top of the series) unless noted.
Summary of the method: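 Hydroperoxide product was detected by ferrous iron/xylenol orange as the 573 to 405 nm absorbance ratio. Arachidonic acid at 40 uM (final) was turned over for 30 min at room temperature by 150 nM human 12hLO, pH 7.0 Hepes buffer, after 15 min compound preincubation.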
For `CCCn1nc(C(=O)NCCc2cccs2)c2ccccc2c1=O`, the Potency was inconclusive: 44.7 µM [inhibitor, partial curve, poor fit]. `CCN(C(C)=O)c1cnc(C=NNC(N)=S)c2ccccc12` was tested, and the Potency was inconclusive: 56.2 µM [inhibitor, partial curve, poor fit]. `CCOC(=O)C1C(c2cccc(Cl)c2Cl)NC(=O)NC1(O)C(F)(F)F` (stereo not drawn) was tested, and the activity change, negative = inhibition was inconclusive: -30.8% [inhibitor]. `Cc1cc(C)nc(NC2=NCC(=O)N2c2ccccc2Br)n1` was tested, and the Potency was inconclusive: 35.5 µM [inhibitor, partial curve, poor fit]. In the case of `Cc1ccc(-n2ncc(C(=O)NCCc3ccsc3)c2C2CCN(C(=O)OC(C)(C)C)CC2)c(C)c1`, the Potency is reported as inconclusive: 56.2 µM [inhibitor, partial curve, poor fit]. With `CCc1cccc2c(C(=O)CSc3nnc(-c4ccncc4)n3C)c[nH]c12` the Potency was inconclusive: 89.1 µM [inhibitor, single point]. In the case of `COC[C@@H]1CN(C(=O)Cc2cccc(F)c2)C[C@H]1c1ccncc1`, the “activity change, negative = inhibition” value is reported as inactive: 12.4%. With `CCc1ccc(C2N=C(N)Nc3nc4ccccc4n32)cc1` (stereo not drawn) the Potency was inconclusive: 50.1 µM [inhibitor, partial curve, poor fit]. With `Cc1ccc(C2(c3ccccc3)NC(=O)N(Cc3ncc(-c4ccccc4)o3)C2=O)cc1C` (stereo not drawn) the “activity change, negative = inhibition” value was inactive: -29.5%. With `Cc1cc(N2CCC3(CCCN(CC4CCC4)C3=O)C2)nc2ccccc12` (stereo not drawn) the “activity change, negative = inhibition” value was inactive: 42.2%. `Cc1cc(NC(=O)CSCC(=O)Nc2cc(C(F)(F)F)ccc2N2CCOCC2)no1` was tested, and the “activity change, negative = inhibition” value was inactive: 370%. `CCC(=O)Nc1nc2c(C)cc(NS(=O)(=O)c3cc(F)ccc3F)cc2s1` was tested, and the Potency was inconclusive: 0.316 µM [inhibitor, single point]. `COc1ccc([C@H]2C[C@@H](O)[C@@H](O)[C@@H]2NC(=O)c2cc(C)n(C)n2)cc1` was tested, and the “activity change, negative = inhibition” value was inactive: -4.47% [at 176 µM]. With `O=C(Nc1ccccc1F)C1CCN(C(=O)NCc2ccccc2)CC1` the Potency was inconclusive: 89.1 µM [inhibitor, single point]. In the case of `Cc1nn(S(=O)(=O)c2ccc([N+](=O)[O-])cc2)c(C)c1Sc1ccccc1`, the Potency is reported as inconclusive: 44.7 µM [inhibitor, partial curve, poor fit]. `COC(=O)[C@@H]1[C@H]2C[C@@H]3c4[nH]c5ccccc5c4CCN3C[C@@H]2CC[C@@H]1O` was tested, and the Potency was inconclusive: 100 µM [inhibitor, single point]. In the case of `Nc1cccc(-c2cccc(N)c2)c1`, the “activity change, negative = inhibition” value is reported as inactive: -32.9%. In the case of `O=C(CCCCCn1c(=O)[nH]c2ccccc2c1=O)NCCc1ccccc1`, the Potency is reported as inconclusive: 141 µM [inhibitor, single point]. With `COc1ccc(-c2nc(C3CC3)nc3c2CN([S+](=O)([O-])c2onc(C)c2C)CC3)cc1` the Potency was inconclusive: 35.5 µM [inhibitor, partial curve, poor fit]. With `S=C1NC2(CCCC2)Nc2ccccc21` the Potency was inconclusive: 112 µM [inhibitor, single point]. In the case of `Cc1cccc(S(=O)(=O)c2cn(Cc3ccc(F)cc3)c3cc(N4CCCCC4)c(F)cc3c2=O)c1`, the Potency is reported as inconclusive: 3.16 µM [inhibitor, full curve]. `CCc1ccccc1/C=C/C(=O)O` was tested, and the Potency was inconclusive: 10 µM [inhibitor, full curve]. `COc1cc(/C=N/N2CCN(C3c4ccccc4-c4ccccc43)CC2)cc(OC)c1O` was tested, and the Potency was inconclusive: 50.1 µM [inhibitor, partial curve, poor fit]. `COc1ccccc1CCC(=O)N1CC2CC(C1)[C@H]1CCCC(=O)N1C2` (stereo partly drawn) was tested, and the “activity change, negative = inhibition” value was inactive: 2.07%. In the case of `c1cc(CNC23CC4CC(CC(C4)C2)C3)ccn1`, the Potency is reported as inconclusive: 35.5 µM [inhibitor, partial curve, poor fit] and inconclusive: 39.8 µM [inhibitor, partial curve]. For `COc1ccccc1NC(=S)N/N=C/c1cccc(C)c1`, the Potency was inconclusive: 50.1 µM [inhibitor, partial curve, poor fit]. With `COc1ccc(NC(=O)N(Cc2nnc3n2CCCCC3)c2ccc3c(c2)OCO3)cc1` the Potency was inconclusive: 31.6 µM [inhibitor, single point]. With `COc1cc(C)c(NC(=O)C(C)Oc2ccc(F)cc2)cc1OC` (stereo not drawn) the “activity change, negative = inhibition” value was inactive: -16.6%. With `COc1cc(C)ccc1Oc1ccc2c(-c3ccccc3)noc2n1` the “activity change, negative = inhibition” value was inactive: -4.04%. `CCCn1nnc(NC(=O)c2cccc(OCC)c2)n1` was tested, and the Potency was inconclusive: 3.98 µM [inhibitor, full curve, poor fit]. With `O=C(O)c1cccc(NC(=S)NCc2ccccc2)c1` the Potency was inconclusive: 35.5 µM [inhibitor, partial curve, poor fit]. `Cc1cc(C)c2nc(-c3ccc(Cl)s3)cc(C(=O)O)c2c1` was tested, and the Potency was inconclusive: 50.1 µM [inhibitor, partial curve, poor fit]. In the case of `O=C(O)c1cc(NCc2ccccc2OCc2ccccc2)ccc1N1CCOCC1`, the Potency is reported as inconclusive: 35.5 µM [inhibitor, partial curve, poor fit]. For `COc1ccc(Cl)cc1NC(=O)CN(C)C(=O)Cn1c(=O)oc2ccccc21`, the Potency was inconclusive: 50.1 µM [inhibitor, partial curve, poor fit]. In the case of `Cc1ccc(-n2ncc3c2CC(C)(C)CC3NC(=O)CCN2CCCCC2=O)cc1` (stereo not drawn), the “activity change, negative = inhibition” value is reported as inactive: 14.9%. In the case of `O=C(CCS(=O)(=O)c1ccc(Cl)cc1)N1CCN(c2ccc(F)cc2)CC1`, the “activity change, negative = inhibition” value is reported as inactive: -28.9%. With `COc1cccc(C(=O)Nc2nc3c(s2)CCCC3)c1` the Potency was inconclusive: 28.2 µM [inhibitor, partial curve, poor fit]. In the case of `N#CCSc1ccccc1C(=O)Nc1ccc2c(c1)CCC2`, the Potency is reported as active: 1.12 µM. For `O=C(NCc1ccco1)[C@@H]1Cc2nc[nH]c2CN1Cc1ccc(C(F)(F)F)cc1`, the “activity change, negative = inhibition” value was inactive: 59.6% [at 176 µM]. In the case of `CCN(CCNC(=O)C1CCN(c2cn[nH]c(=O)c2)C1)Cc1ccccc1` (stereo not drawn), the Potency is reported as inconclusive: 7.08 µM [inhibitor, full curve]. In the case of `CN(C(=O)c1cc2ccccc2o1)C(c1cccc(F)c1)c1ccccn1` (stereo not drawn), the activity change, negative = inhibition is reported as inconclusive: -35.8% [inhibitor]. `COc1ccc(-n2c(=O)c3ccc(C(=O)NCc4ccc(C)cc4)cc3n(CC(=O)Nc3cccc(F)c3)c2=O)cc1` was tested, and the Potency was inconclusive: 100 µM [inhibitor, partial curve, poor fit]. For `COc1cc(/C=C/c2cc(C(=O)O)c3ccccc3n2)ccc1OC(F)F`, the Potency was inconclusive: 25.1 µM [inhibitor, single point]. For `O=C(CN1C(=O)NC2(CCCC2)C1=O)N1CCN(c2cccc(C(F)(F)F)c2)CC1`, the Potency was inconclusive: 0.251 µM [inhibitor, full curve, poor fit]. For `Fc1ccccc1N1CCN(CC2CCCCC2)CC1`, the Potency was inconclusive: 1.12 µM [inhibitor, full curve]. `COc1cccc(Oc2cn[nH]c2-c2ccc(O)cc2O)c1` was tested, and the Potency was inconclusive: 20 µM [inhibitor, full curve, poor fit]. With `CC1CCC(C(C)[C@H]2CCC3C4CC(=O)C5C[C@@H](O)CC[C@]5(C)C4CC[C@@]32C)=NC1` (stereo partly drawn) the “activity change, negative = inhibition” value was inactive: -27.9%. In the case of `COC(=O)c1ccccc1NC(=O)CSc1nncc2ccccc12`, the Potency is reported as inconclusive: 126 µM [inhibitor, single point]. For `Cc1cccc(C)c1NC(=O)C1c2cccc[n+]2CC(=O)N1Cc1ccc2c(c1)OCO2` (stereo not drawn), the Potency was inconclusive: 44.7 µM [inhibitor, single point]. `COc1ccc(CNC(=O)C2CCN(S(=O)(=O)c3ccc(-c4nn[nH]n4)cc3)CC2)cc1` was tested, and the Potency was inconclusive: 35.5 µM [inhibitor, partial curve, poor fit]. For `Cc1cc(C)cc(N(C(=O)CNC(=O)c2ccco2)C(C(=O)NC2CCCCC2)c2cccnc2)c1` (stereo not drawn), the Potency was inconclusive: 112 µM [inhibitor, single point]. With `Cn1c(NCCc2ccccc2)nc2c1c(=O)n(Cc1ccc(Cl)c(Cl)c1)c(=O)n2C` the Potency was inconclusive: 44.7 µM [inhibitor, partial curve, poor fit]. `Cc1ccc(S(=O)(=O)/N=C(/Nc2ccc([N+](=O)[O-])cc2[N+](=O)[O-])c2ccccc2)cc1` was tested, and the Potency was inconclusive: 50.1 µM [inhibitor, partial curve, poor fit]. For `CC(=O)NC(c1ccccc1)c1nc(-c2cnc3ccccc3c2)cs1` (stereo not drawn), the “activity change, negative = inhibition” value was inactive: -16.2%. For `CC(C)n1nc(C(=O)NCc2ccc3c(c2)OCO3)c2ccccc2c1=O`, the Potency was inconclusive: 17.8 µM [inhibitor, partial curve, poor fit]. For `c1ccc(OCc2nnc3sc(-c4cccs4)nn23)cc1`, the Potency was inconclusive: 7.08 µM [inhibitor, full curve, poor fit]. With `COc1ccc(C(=O)N2Cc3ccccc3CC23CCCN(C(=O)CN)C3)cc1` (stereo not drawn) the Potency was inconclusive: 2.82 µM [inhibitor, full curve, poor fit]. In the case of `Cc1ccc(-n2c(-c3ccc(Cl)cc3)n[nH]c2=S)cc1`, the Potency is reported as inconclusive: 25.1 µM [inhibitor, partial curve]. For `Cn1ccnc1Sc1ccccc1[N+](=O)[O-]`, the “activity change, negative = inhibition” value was inactive: -3.64%. For `C[S+](=O)([O-])N1CC2(CCN(C(=O)CCC(=O)O)C2)Cc2ccccc21` (stereo not drawn), the Potency was inconclusive: 50.1 µM [inhibitor, partial curve, poor fit]. In the case of `CC(C)CC(=O)Nc1ccc(Nc2ccccc2)cc1`, the Potency is reported as inconclusive: 50.1 µM [inhibitor, partial curve, poor fit]. `CCS(=O)(=O)Nc1ccc(N2CCN(c3cccc(C(F)(F)F)c3)CC2)c(C(=O)O)c1` was tested, and the Potency was inconclusive: 44.7 µM [inhibitor, partial curve, poor fit]. With `COC(=O)c1ccc(NC(=O)CC2C(=O)N(c3cccc(F)c3)C(=O)N2CC(C)C)cc1` (stereo not drawn) the “activity change, negative = inhibition” value was inactive: -29.8%.
